Laboratory results taken from patent US20100311946 (published 2010).

Assays:
[1] = general procedure: Fmoc solid-phase peptide synthesis; CTC resin; DIC/HOBt; HBTU/HOBt/DIEA for solution steps; details: late stage modification step, run 5
[2] = solid-phase peptide synthesis
[3] = late stage modification step, run 1

In the case of “p.Glu-His-Trp-Ser-Tyr-D.Ser(tBu)-Leu-Arg-Pro-Azagly-CONH2”, the “crude HPLC purity” value [1] is reported as over 3.16%, the outcome ([2]; late stage modification step) is reported as “HPLC analysis showed that no goserelin was produced” and the “crude HPLC purity” value [2, 3] is reported as 20.05%. The “crude HPLC purity” value ([2]; late stage modification step, run 2) was 6%, the “crude HPLC purity” value ([2]; late stage modification step, run 3) was 14% and the “crude HPLC purity” value ([2]; late stage modification step, run 4) was 9%. For the same substance, the step yield ([2]; late stage modification step, theoretical yield) was 69.7%, the difficulty met [2, 3] was “HPLC analysis showed that there was almost no goserelin peak” and the step yield [2, 3] was 7.8%. For the same substance, the “crude HPLC purity” value ([2]; whole synthesis, run 1) was over 13.46%, the “crude HPLC purity” value ([2]; whole synthesis, run 2) was over 1.03% and the “crude HPLC purity” value ([2]; whole synthesis, run 3) was over 25.2%. The “crude HPLC purity” value ([2]; whole synthesis, run 4) was over 23.55%, the “crude HPLC purity” value ([2]; whole synthesis, run 5) was over 23.95% and the crude mass ([2]; whole synthesis, scale 0.0003 mole) was 0.26 g. The crude yield ([2]; whole synthesis, run 1) was 37.14%, the outcome ([2]; whole synthesis, run 1) was “peptide was not cleaved from the resin and there was no reaction with semicarbazide” and the crude yield ([2]; whole synthesis, run 2) was 55.71%. The outcome ([2]; whole synthesis, run 2) was “This synthesis was unsuccessful, as HPLC analysis showed no product peak”, the crude yield ([2]; whole synthesis, run 3) was 74.3% and the crude yield ([2]; whole synthesis, run 4) was 62.86%.
